In PMC5339802 (2017):
These are yes or no findings as the source states them, for the method shown. In cells and extracts the contact can be indirect. Some results given as binding are weak or reduced against the parent protein; the word gives no strength.

Amino acid sequences for entries named in this document (tags omitted).
UniProt Q9Y4I1: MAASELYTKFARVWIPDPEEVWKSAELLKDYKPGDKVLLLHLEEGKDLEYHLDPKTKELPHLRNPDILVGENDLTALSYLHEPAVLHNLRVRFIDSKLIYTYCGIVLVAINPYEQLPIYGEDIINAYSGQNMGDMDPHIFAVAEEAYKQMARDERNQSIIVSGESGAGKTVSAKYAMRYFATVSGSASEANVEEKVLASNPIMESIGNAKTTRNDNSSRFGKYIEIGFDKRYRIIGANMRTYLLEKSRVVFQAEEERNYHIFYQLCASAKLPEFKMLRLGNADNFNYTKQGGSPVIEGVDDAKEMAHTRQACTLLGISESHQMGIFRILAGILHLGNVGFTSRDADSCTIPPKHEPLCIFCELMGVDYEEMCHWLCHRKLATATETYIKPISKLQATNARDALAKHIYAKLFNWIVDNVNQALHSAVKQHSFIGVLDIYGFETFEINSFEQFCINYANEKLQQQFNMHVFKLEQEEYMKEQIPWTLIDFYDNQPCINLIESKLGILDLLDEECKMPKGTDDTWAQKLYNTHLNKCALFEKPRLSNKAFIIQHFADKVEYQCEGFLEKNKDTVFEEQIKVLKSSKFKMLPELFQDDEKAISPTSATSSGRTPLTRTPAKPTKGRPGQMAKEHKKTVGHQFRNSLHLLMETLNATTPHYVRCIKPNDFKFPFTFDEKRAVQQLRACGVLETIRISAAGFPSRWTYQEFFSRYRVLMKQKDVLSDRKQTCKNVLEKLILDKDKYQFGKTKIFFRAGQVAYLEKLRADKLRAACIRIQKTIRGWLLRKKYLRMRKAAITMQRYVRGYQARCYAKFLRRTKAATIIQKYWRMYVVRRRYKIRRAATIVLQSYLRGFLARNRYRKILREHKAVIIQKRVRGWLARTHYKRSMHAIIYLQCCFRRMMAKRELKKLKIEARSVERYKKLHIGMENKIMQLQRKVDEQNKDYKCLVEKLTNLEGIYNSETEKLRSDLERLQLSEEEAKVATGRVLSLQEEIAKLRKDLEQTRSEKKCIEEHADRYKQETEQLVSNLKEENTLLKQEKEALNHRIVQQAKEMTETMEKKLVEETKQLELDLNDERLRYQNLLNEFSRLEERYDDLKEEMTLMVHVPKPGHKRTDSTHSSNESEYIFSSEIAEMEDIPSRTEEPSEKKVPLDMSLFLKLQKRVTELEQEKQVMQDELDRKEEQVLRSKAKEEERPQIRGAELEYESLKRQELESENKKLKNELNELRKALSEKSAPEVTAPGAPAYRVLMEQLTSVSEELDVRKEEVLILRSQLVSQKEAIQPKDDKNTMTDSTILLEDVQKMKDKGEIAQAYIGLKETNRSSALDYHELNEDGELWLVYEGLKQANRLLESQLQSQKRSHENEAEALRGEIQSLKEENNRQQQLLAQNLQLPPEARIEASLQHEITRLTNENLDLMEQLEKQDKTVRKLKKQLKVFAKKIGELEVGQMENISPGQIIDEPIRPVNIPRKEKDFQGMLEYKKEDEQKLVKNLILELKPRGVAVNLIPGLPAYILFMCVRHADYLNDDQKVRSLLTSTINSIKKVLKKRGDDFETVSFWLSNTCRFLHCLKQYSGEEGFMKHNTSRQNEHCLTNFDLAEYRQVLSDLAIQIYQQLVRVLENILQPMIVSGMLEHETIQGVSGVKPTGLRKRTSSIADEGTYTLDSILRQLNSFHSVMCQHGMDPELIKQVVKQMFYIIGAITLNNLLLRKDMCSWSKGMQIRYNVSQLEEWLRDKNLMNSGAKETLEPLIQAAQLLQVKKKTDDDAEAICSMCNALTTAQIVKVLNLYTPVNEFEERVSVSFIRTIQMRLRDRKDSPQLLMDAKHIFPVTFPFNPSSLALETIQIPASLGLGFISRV
UniProt Q68CZ1: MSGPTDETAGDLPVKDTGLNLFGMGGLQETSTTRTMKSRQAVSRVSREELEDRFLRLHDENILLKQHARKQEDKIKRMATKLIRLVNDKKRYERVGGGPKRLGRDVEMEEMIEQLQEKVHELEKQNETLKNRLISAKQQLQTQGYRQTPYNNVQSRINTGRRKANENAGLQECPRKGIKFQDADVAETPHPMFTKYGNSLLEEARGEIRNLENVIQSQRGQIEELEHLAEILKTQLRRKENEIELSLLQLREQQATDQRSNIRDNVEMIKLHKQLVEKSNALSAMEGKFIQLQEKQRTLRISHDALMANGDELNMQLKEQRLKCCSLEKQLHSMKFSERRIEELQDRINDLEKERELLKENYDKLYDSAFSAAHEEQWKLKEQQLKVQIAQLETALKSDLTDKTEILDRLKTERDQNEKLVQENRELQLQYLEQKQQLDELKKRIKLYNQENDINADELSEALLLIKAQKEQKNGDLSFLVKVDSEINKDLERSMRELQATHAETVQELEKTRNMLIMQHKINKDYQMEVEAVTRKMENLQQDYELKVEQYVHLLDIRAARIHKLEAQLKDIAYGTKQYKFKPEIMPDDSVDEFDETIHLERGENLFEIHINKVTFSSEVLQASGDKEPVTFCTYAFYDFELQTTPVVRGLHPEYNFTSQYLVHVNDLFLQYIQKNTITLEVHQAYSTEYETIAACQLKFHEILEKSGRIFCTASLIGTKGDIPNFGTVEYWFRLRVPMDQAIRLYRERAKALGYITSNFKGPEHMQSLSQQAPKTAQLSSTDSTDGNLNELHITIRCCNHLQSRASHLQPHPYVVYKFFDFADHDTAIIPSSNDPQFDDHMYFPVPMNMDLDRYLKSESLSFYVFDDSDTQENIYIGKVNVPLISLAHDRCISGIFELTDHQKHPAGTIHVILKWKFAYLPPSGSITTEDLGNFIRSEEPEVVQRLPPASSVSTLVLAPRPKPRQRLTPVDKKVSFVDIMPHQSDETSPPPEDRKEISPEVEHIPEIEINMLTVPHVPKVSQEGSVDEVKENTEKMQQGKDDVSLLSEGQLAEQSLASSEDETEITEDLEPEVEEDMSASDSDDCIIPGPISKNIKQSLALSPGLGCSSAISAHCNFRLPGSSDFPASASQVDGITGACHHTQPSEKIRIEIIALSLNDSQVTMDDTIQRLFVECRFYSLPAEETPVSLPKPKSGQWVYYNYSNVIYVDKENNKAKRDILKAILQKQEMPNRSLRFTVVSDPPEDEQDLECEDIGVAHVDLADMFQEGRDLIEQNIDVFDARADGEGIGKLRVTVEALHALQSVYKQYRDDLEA

Biological target: Myosin Va (MyoVa), endogenous (human (endogenous in hTERT RPE-1)) (UniProt Q9Y4I1)
Assay: proximity ligation; in situ PLA (Duolink) in fixed, serum-starved ciliated hTERT RPE-1 cells with rabbit anti-MyoVa and goat anti-RPGRIP1L; control without primary antibodies

binding: binds
Substance: RPGRIP1L, endogenous (from UniProt Q68CZ1 1-1315)
